About 22,000 (6.9%) of roughly 320,000 compounds were called active. This list was built around the results that the source calls inconclusive (neither active nor inactive); the mix of calls is not that of the screen. The call rests on the fitted dose curve; in most records, active means well fitted inhibition curve with a large enough effect; inconclusive means small, poorly fitted or top-dose-only effect, or another doubt; inactive means no such curve, though single readings can be large or run the other way. Potencies of inconclusive entries are doubtful fits and often do not repeat.
Experiment: Primary qHTS for delayed death inhibitors of the malarial parasite plastid, 96 hour incubation
Details: P. falciparum luciferase reporter growth; series mostly up to 28.7 µM; activity change, negative = inhibition: at the top concentration
Outline: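 96 h incubation, 37 C, 5% CO2, of luciferase-reporter P. falciparum-infected RBCs (2% hematocrit, 0.05% parasitemia final) with test compounds; endpoint luminescence.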
On the % scale 0 is the no-effect control and ±100 the full control effect; potency means the concentration at half of the fitted maximal effect.

| Structure (SMILES) | activity change, negative = inhibition | Potency |
| --- | --- | --- |
| Fc1ccc(-n2nnc(-c3ccccc3)n2)cc1 | inactive: 22.9% |  |
| CC(NC(=O)C(=O)N1CCCCC1)C(c1cccs1)N1CCN(c2ccccc2F)CC1 (stereo not given) |  | active: 1.31 µM |
| c1ccc(-c2ccc(OCCOCCn3cncn3)cc2)cc1 | inactive: 13.3% |  |
| CC(C)CN(C(=O)c1cccc(S(=O)(=O)N2CCN(Cc3ccccc3)CC2)c1)C1CCS(=O)(=O)C1 (stereo not given) |  | inconclusive: 9.28 µM [inhibitor, partial curve, poor fit] |
| CC(=O)Oc1ccc2c(C)cc(=O)oc2c1C(=O)c1ccccc1 | inactive: 17.8% |  |
| CNC(=O)c1[nH]nc2c1CCc1ccccc1-2 |  | inconclusive: 18.5 µM [inhibitor, single point] |
| C=CCOc1c(Br)cc(CNc2ccc(NC(=O)C(C)C)c(OC)c2)cc1OC |  | active: 8.28 µM |
| O=C(Oc1coc(CSc2nnc(NC(=O)c3cccs3)s2)cc1=O)c1ccccc1 |  | inconclusive: 11.7 µM [inhibitor, partial curve] |
| CCOC(=O)C1(Cc2ccccc2)CCN(Cc2ccc(C)s2)CC1 | inactive: 6.91% |  |
| CCOC(=O)C1(Cc2ccccc2Cl)CCN(C(=O)c2cc(C)on2)CC1 |  | inconclusive: 14.7 µM [inhibitor, single point] |
| COc1ccc(C(=O)c2sc(Nc3ccccc3)nc2N)cc1 |  | inconclusive: 18.5 µM [inhibitor, single point] |
| COc1ccccc1C(=O)Nc1ccc(Br)c2cccnc12 |  | inconclusive: 13.1 µM [inhibitor, partial curve] |
| COc1ccc(CN2CCOCC2)cc1OC | inactive: 0.629% |  |
| CCNS(=O)(=O)c1c(C)cc(N2CCCC2=O)cc1C |  | inconclusive: 18.5 µM [inhibitor, single point] |
| CC(=O)Nc1ccc(NC(=O)C2CCCN2C(=O)Nc2ccc(F)c([N+](=O)[O-])c2)cc1 (stereo not given) | inactive: 31.4% |  |
| CCN(CC)c1ccc(/C=N/Nc2ccccc2)c(O)c1 |  | inconclusive: 18.5 µM [inhibitor, single point] |
| Cc1cc(Cl)c(OCCCN2CCCCC2)c(Br)c1 |  | inconclusive: 11.7 µM [inhibitor, single point] |
| COc1ccc(S(=O)(=O)N2CCCCC2)cc1NC(=O)Cc1cccs1 |  | inconclusive: 13.1 µM [inhibitor, single point] |
| CC1(C)CC(=O)C2=C(C1)OC(N)=C([N+](=O)[O-])C2c1cccs1 (stereo not given) | inactive: 3.72% |  |
| COc1cc(C(=O)N2c3ccccc3CCC2C)cc(OC)c1OC (stereo not given) |  | inconclusive: 11.7 µM [inhibitor, single point] |
| COC(=O)C1=C(CSc2nc3ccccc3s2)NC(=O)NC1c1ccc(F)cc1 (stereo not given) |  | inconclusive: 11.7 µM [inhibitor, single point] |
| Cn1nc(C(C)(C)C)c([N+](=O)[O-])c1C(=O)Nc1cccc2ccccc12 |  | active: 11.7 µM |
| O=C(NCc1ccc(F)cc1)C(=O)c1cn(CC(=O)N2CCCC2)c2ccccc12 |  | inconclusive: 11.7 µM [inhibitor, partial curve, poor fit] |

Nothing new here: an excerpt of the list.

| Structure (SMILES) | activity change, negative = inhibition | Potency |
| --- | --- | --- |
| CC(=O)Oc1ccc2c(C)cc(=O)oc2c1C(=O)c1ccccc1 | inactive: 17.8% |  |
| CNC(=O)c1[nH]nc2c1CCc1ccccc1-2 |  | inconclusive: 18.5 µM [inhibitor, single point] |
| C=CCOc1c(Br)cc(CNc2ccc(NC(=O)C(C)C)c(OC)c2)cc1OC |  | active: 8.28 µM |
| O=C(Oc1coc(CSc2nnc(NC(=O)c3cccs3)s2)cc1=O)c1ccccc1 |  | inconclusive: 11.7 µM [inhibitor, partial curve] |
| CCOC(=O)C1(Cc2ccccc2)CCN(Cc2ccc(C)s2)CC1 | inactive: 6.91% |  |
| CCOC(=O)C1(Cc2ccccc2Cl)CCN(C(=O)c2cc(C)on2)CC1 |  | inconclusive: 14.7 µM [inhibitor, single point] |
| COc1ccc(C(=O)c2sc(Nc3ccccc3)nc2N)cc1 |  | inconclusive: 18.5 µM [inhibitor, single point] |
| COc1ccccc1C(=O)Nc1ccc(Br)c2cccnc12 |  | inconclusive: 13.1 µM [inhibitor, partial curve] |
| COc1ccc(CN2CCOCC2)cc1OC | inactive: 0.629% |  |

Going on with the list.

| Structure (SMILES) | activity change, negative = inhibition | Potency |
| --- | --- | --- |
| CN1CCC(N(C)C(=O)CCc2nc3ccccc3n2-c2ccccc2)CC1 |  | inconclusive: 2.62 µM [inhibitor, partial curve, poor fit] |
| CCCOc1ccc(C(=O)N/N=C/c2ccc(-c3ccc(S(=O)(=O)Nc4ncccn4)cc3)o2)cc1 |  | inconclusive: 9.28 µM [inhibitor, single point] |
| O=C(Nc1ccccc1)c1ccc(CSc2ncccn2)cc1 | inactive: 201% |  |
| COc1ccc(NC(=O)CCC(=O)c2cccs2)cc1Cl | inactive: 43.6% |  |
| Cc1cc(S(=O)(=O)N2CCOCC2)ccc1OCC(=O)NCCCn1ccnc1 | inactive: 53.5% |  |
| Cc1ccc(C)c(N2CC(C(=O)OCC(=O)Nc3cc(C)on3)CC2=O)c1 (stereo not given) |  | inconclusive: 10.4 µM [inhibitor, partial curve, poor fit] |
| CCS(=O)(=O)c1nc(S(=O)(=O)c2ccc(C)cc2)c(NCCCN2CCCC2=O)s1 |  | inconclusive: 18.5 µM [inhibitor, single point] |
| COc1ccc(C(c2c(NC(=O)c3ccco3)sc(C)c2C)N2CCOCC2)cc1OC (stereo not given) |  | active: 4.65 µM |
| CCCCNC(C(=O)Nc1cccc(S(=O)(=O)N2CCOCC2)c1)c1ccccc1 (stereo not given) |  | inconclusive: 18.5 µM [inhibitor, single point] |
| CCN(CC)S(=O)(=O)c1ccc(C(=O)NNC(=O)C2CCN(S(=O)(=O)c3ccc(Cl)cc3)CC2)cc1 |  | inconclusive: 10.4 µM [inhibitor, single point] |
| CCc1cc([N+](=O)[O-])cc(CC)c1N |  | inconclusive: 18.5 µM [inhibitor, single point] |
| CC(C)c1ccc(NC(=O)COC(=O)COc2ccccc2)cc1 | inactive: 2.42% |  |
| COc1ccccc1Nc1nc(N)nc(CN2CCc3ccccc3C2)n1 | inactive: -25.5% |  |
| C=Cc1c(C)c2cc3nc(cc4[nH]c(cc5nc(cc1[nH]2)C(C)=C5CCC(=O)O)c(CCC(=O)OC)c4C)[C@@]1(C)C3=CC=C(C(=O)OC)[C@H]1C(=O)OC (tested in a mixture with another compound) |  | active: 3.38 µM |
| Cc1cc(NC(=O)c2cccs2)n(-c2ccccc2)n1 | inactive: -2.89% |  |
| Cc1ccc(C(NC(=O)c2ccccc2)C(Cl)(Cl)Cl)cc1 (stereo not given) |  | inconclusive: 18.5 µM [inhibitor, single point] |
| COc1ccc(NC(=O)Cc2coc3ccc4ccccc4c23)cc1S(=O)(=O)N1CCOCC1 |  | inconclusive: 11.7 µM [inhibitor, partial curve, poor fit] |
| CC1CCN(C(=O)c2ccc(NC3=C(Cl)C(=O)N(Cc4ccccc4)C3=O)cc2)CC1 |  | inconclusive: 18.5 µM [inhibitor, single point] |
| COc1cccc(CCc2nnc(CCC(=O)NCCC3CCCCO3)o2)c1 (stereo not given) | inactive: -15.2% |  |
| CCCCN(C)CCn1c(=S)[nH]c2ccc(N3CCOCC3)cc2c1=O |  | inconclusive: 13.1 µM [inhibitor, single point] |
| O=c1[nH]cnc2c1c(-c1ccccc1)cn2-c1ccc(F)cc1 |  | inconclusive: 2.62 µM [inhibitor, full curve, poor fit] |
| CCOc1ccc(N(CC(=O)NCc2ccc(F)cc2)C(=O)c2ccco2)cc1 |  | inconclusive: 8.28 µM [inhibitor, partial curve, poor fit] |
